No constants are given. Whether binding was seen depends on the method and setting. In cells and extracts the contact can be indirect. Some results given as binding are weak or reduced against the parent protein; the word gives no strength. For some assays here: Sequences can lack the tags named with a protein.
Columns and labels:
[1] = target: T1, mitofusin 1 (not stated (endogenous in VSMCs; human and mouse VSMCs were cultured)) (UniProt Q8IWA4); experiment: proximity ligation
T1 sequence: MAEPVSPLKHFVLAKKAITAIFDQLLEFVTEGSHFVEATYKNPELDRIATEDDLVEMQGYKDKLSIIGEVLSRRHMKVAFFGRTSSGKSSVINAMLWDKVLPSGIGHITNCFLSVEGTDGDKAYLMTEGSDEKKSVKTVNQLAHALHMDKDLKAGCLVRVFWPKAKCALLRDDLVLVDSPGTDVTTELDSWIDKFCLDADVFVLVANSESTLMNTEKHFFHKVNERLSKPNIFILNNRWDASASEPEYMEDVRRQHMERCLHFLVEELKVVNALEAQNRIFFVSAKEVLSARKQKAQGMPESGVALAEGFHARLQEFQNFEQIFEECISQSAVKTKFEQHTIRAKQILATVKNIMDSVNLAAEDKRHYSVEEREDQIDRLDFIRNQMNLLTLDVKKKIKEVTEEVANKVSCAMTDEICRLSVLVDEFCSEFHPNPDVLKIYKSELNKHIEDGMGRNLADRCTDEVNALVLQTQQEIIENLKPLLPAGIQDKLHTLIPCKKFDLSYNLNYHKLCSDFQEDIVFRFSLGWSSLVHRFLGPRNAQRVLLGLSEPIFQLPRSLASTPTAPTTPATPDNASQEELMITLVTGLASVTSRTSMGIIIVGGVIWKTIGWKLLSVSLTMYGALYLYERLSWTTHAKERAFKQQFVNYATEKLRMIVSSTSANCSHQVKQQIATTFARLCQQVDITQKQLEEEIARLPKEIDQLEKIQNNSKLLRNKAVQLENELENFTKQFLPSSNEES

Chains of the proteins cited; added tags and fusions are not shown.
UniProt O00429: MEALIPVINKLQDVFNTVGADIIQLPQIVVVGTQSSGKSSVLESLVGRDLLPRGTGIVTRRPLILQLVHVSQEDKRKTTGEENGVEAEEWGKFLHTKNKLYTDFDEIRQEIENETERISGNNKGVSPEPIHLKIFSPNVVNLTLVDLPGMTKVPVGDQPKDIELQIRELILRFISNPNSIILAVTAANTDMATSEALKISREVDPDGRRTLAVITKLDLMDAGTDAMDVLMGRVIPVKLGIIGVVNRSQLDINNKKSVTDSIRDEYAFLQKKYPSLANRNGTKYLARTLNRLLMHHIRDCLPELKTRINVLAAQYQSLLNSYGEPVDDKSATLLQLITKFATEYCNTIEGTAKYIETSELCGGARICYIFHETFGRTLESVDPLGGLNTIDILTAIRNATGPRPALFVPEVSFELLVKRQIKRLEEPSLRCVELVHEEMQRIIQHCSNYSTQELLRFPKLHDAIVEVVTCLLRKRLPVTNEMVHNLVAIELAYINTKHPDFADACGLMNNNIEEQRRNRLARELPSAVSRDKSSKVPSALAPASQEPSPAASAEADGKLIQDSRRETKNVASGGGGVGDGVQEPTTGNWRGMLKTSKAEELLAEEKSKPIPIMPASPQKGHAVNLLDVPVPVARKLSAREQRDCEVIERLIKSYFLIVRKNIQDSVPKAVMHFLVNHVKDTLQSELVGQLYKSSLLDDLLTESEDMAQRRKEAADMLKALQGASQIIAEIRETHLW
UniProt Q9Y3D6: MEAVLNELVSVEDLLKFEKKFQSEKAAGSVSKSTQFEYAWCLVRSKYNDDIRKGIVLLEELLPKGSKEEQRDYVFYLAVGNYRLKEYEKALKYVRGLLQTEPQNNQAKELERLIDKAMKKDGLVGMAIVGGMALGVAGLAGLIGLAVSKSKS
UniProt P63241: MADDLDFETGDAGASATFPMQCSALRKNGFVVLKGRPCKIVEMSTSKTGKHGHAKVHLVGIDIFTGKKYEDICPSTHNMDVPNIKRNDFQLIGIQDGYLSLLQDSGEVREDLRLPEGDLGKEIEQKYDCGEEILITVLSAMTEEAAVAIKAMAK

[2] = target: dynamin-related protein 1 (not stated (endogenous in VSMCs; human and mouse VSMCs were cultured)) (UniProt O00429); experiment: co-IP
[3] = target: T1, mitofusin 1 (not stated (endogenous in VSMCs; human and mouse VSMCs were cultured)); experiment: co-IP
[4] = target: T2, Mtfr1 (not stated (endogenous in VSMCs; human and mouse VSMCs were cultured)) (UniProt Q15390); experiment: co-IP
T2 sequence: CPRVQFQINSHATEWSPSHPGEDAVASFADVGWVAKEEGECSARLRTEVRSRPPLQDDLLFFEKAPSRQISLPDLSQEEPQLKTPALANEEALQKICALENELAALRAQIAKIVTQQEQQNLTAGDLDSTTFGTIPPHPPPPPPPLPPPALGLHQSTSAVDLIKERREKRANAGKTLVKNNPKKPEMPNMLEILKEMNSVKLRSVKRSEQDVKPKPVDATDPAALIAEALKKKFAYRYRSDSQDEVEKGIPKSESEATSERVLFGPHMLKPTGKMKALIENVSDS

[5] = target: Fis1 (not stated (endogenous in VSMCs; human and mouse VSMCs were cultured)) (UniProt Q9Y3D6); experiment: co-IP

- binding [1]: binds
- binding [2]: no binding
- binding [3]: binds
- binding [4]: no binding
- binding [5]: no binding
Substance: Eukaryotic translation initiation factor 5a (from UniProt P63241 1-154)

Reference: paper doi:10.1101/787812
